The campaign covered roughly 330,000 compounds. About 7,700 (2.3%) were called active. This list was built around the results that the source calls inconclusive (neither active nor inactive); the mix of calls is not that of the screen. Calls follow the shape of the dose curve; as a rule, active = well fitted inhibition curve with a large enough effect; inconclusive = small, poorly fitted or top-dose-only effect, or effect the other way; inactive = flat fitted curve, though single readings scatter. Where the call is inconclusive, the potency comes from a doubtful curve fit.
Test: qHTS screen for small molecules that inhibit ELG1-dependent DNA repair in human embryonic kidney (HEK293T) cells expressing luciferase-tagged ELG1; also: nearly all actives have a fitted effect of over 55% in size
Details: HEK293T ELG1-luciferase reporter, luminescence, 16 h, DNA damage induced by 5-fluorouridine; series mostly up to 46.1 µM
Method in brief: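 Luminescence from the luciferase reporter, measured 30 min after ONE-Glo reagent at room temperature, was the read-out. Beforehand, 2,000 cells per well were exposed for 16 hr at 37 °C to 5-fluorouridine together with compound or vehicle.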
Potency is read from the fitted curve at half-maximal effect.

| SMILES | Potency |
| --- | --- |
| COc1cccc(C2Nc3ccccc3C(=O)N2c2ccc(F)cc2)c1O (stereo unspecified) | inconclusive: 18.3 µM [activator, single point] |
| COc1ccc2cc(/C=C/C(=O)c3ccco3)c(Cl)nc2c1 | inconclusive: 18.4 µM [activator, single point] |
| CCCOc1ccccc1C(=O)N(Cc1cccc(Br)c1)C1CCS(=O)(=O)C1 (stereo unspecified) | inactive |
| O=C(c1ccsc1)N1CCCC(N2CCOCC2)C1 (stereo unspecified) | inactive |
| CCC(=O)Nc1ccc(NC(=O)CSc2nnc(-c3ccco3)n2CC)cc1 | inactive |
| COc1cc2c(cc1NC(=O)c1ccncc1)oc1ccccc12 | inconclusive: 20.6 µM [activator, single point] |
| COC(=O)[C@@H]1CC[C@H](C)[C@@H](c2ccc(C)cc2)N1C(=O)c1ccc(/C=N/O[C@@H](C)CN2CCCCc3nc(C)c(C)cc32)cc1 | inconclusive: 18.4 µM [inhibitor, single point] |
| Nc1ccc(C(=O)Nc2nccs2)cc1 | inconclusive: 13 µM [activator, partial curve] |
| O=C(Nc1cc2c3c(c1)CC(=O)N3CCC2)c1ccc(Cl)cc1 | inconclusive: 6.51 µM [activator, single point] |
| COc1cc(/C=C(\C#N)c2ccccn2)cc(OC)c1O | inactive |
| Cc1c(C(=O)Nc2ccc(Oc3ccccc3)cc2)sc2nc3n(c(=O)c12)CCC3 | inconclusive: 16.4 µM [inhibitor, partial curve] |
| CSc1ccc(C(=O)C2CCCN(S(=O)(=O)N(C)C)C2)cc1 (stereo unspecified) | inconclusive: 20.6 µM [inhibitor, partial curve, poor fit] |
| CCCCc1nc2cc(C(=O)NC(C)c3cnn(C)c3)ccc2o1 (stereo unspecified) | inconclusive: 18.3 µM [activator, partial curve] |
| Cn1nnnc1Sc1ncnc2scc(-c3ccccc3)c12 | inconclusive: 29.1 µM [inhibitor, single point] |
| COc1ccccc1-c1cc(C(=O)N2CCCc3ccccc32)no1 | inactive |
| COc1ccccc1OCCNC(=O)CN1C(=O)NC2(CCCCC2)C1=O | inactive |
| COC(=O)COc1ccc(Oc2cc(C)nc(SC)n2)nn1 | inconclusive: 32.6 µM [activator, partial curve, poor fit] |
| CC1CC(=O)N(c2ccc(NCCc3ccccc3)c([N+](=O)[O-])c2)C1=O (stereo unspecified) | inactive |
| Cn1c(-c2ccc3ccccc3n2)nc2cnccc21 | inconclusive: 10.3 µM [activator, partial curve] |
| O=C(COc1ccccc1)Nc1cccc(-c2nc3ccccc3[nH]2)c1 | inconclusive: 29.1 µM [inhibitor, single point] |
| Cc1cc(/C=N/NC(=O)c2cccs2)c(C)n1-c1ccccc1 | inconclusive: 0.461 µM [activator, full curve] |
| CC(=O)Nc1ccccc1N(C)S(=O)(=O)c1ccc(C)cc1 | inconclusive: 23.1 µM [inhibitor, single point] |
| O=C(O)c1ccccc1NS(=O)(=O)c1cccc(NS(=O)(=O)c2cc(Br)ccc2Br)c1 | inactive |
| N/C(=N\OC(=O)c1cccc(Cl)c1)c1cccnc1 | inconclusive: 16.4 µM [activator, partial curve] |

| SMILES | Potency |
| --- | --- |
| COc1ccc(-c2c(C(F)(F)F)[nH]n3c(=O)cc(-c4ccccc4)nc23)cc1 | inconclusive: 23.1 µM [inhibitor, single point] |
| O=C(c1ccco1)N1CCN(Cc2cccc3ccccc23)CC1 | inconclusive: 4.11 µM [inhibitor, partial curve, poor fit] |
| C=CCN(c1ccccc1)S(=O)(=O)c1cccc2cccnc12 | inconclusive: 23.1 µM [inhibitor, single point] |
| N=c1c2c3c(sc2nc2n1CCCCC2)CCCC3 | inconclusive: 16.4 µM [activator, single point] |
| Cc1cc2nnc(SCC(=O)OC(C)C)n2c2ccccc12 | inconclusive: 14.6 µM [activator, partial curve, poor fit] |
| COc1ccc(C(=O)Nc2ccc(N3CCCCCC3)cc2)cc1S(=O)(=O)N1CCOCC1 | active: 20.6 µM |
| Nc1ccccc1Oc1ccc2ccccc2c1 | inconclusive: 32.6 µM [activator, partial curve, poor fit] |
| O=[N+]([O-])c1cc(C(F)(F)F)ccc1NCCCCNS(=O)(=O)c1ccc(Cl)cc1 | inactive |
| COc1cccc2c(=O)n(CC(=O)Nc3cccc(F)c3)ccc12 | inconclusive: 18.4 µM [activator, single point] |
| CC(=O)N1CCOCCOCCOCC1 | inconclusive: 29.1 µM [activator, single point] |
| Cc1ccc(SSc2cc(C)ccc2N)c(N)c1 | inconclusive: 31.6 µM [inhibitor, single point] |
| Cc1ccc(NC(=S)NC2CC3CCCC(C2)N3Cc2ccco2)cc1 (stereo unspecified) | inconclusive: 4.61 µM [inhibitor, single point] |
| COc1ccccc1C(=O)N1CCN(Cc2cccnc2)CC1 | inactive |
| COc1ccc(C(=O)Nc2ccc(OC)c([N+](=O)[O-])c2)cc1Br | inactive |
| S=c1nc(NCc2ccc3c(c2)OCO3)c2ccccc2[nH]1 | inactive |
| CCCCCn1ccc(=O)c2c(C(F)(F)F)nccc21 | active: 5.8 µM |
| COc1cc(C2=NOC(C(=O)Nc3cc(C)on3)C2)cc(OC)c1OC (stereo unspecified) | inconclusive: 32.6 µM [inhibitor, single point] |
| Cc1ccc(S(=O)(=O)NCC(c2ccco2)N2CCc3ccccc32)cc1 (stereo unspecified) | inactive |
| COc1ccc(NC(=O)c2cc3c([nH]c4ccccc43)c(C)n2)cc1 | inactive |
| O=C(c1cc(=O)[nH]c2ccccc12)N1CC=C(c2ccccc2)CC1 | inconclusive: 23.1 µM [inhibitor, single point] |
| COc1ccccc1-c1cc(C(=O)N2CCN(c3ccc(F)cc3)CC2)no1 | inconclusive: 29.1 µM [inhibitor, single point] |
| CCOC(=O)C1(Cc2cccc(Cl)c2)CCCN(C(=O)c2ccnn2C)C1 (stereo unspecified) | inconclusive: 11.6 µM [activator, partial curve] |
| S=c1[nH]ncn1/N=C/c1cccc(Oc2ccccc2)c1 | inconclusive: 14.6 µM [activator, partial curve, poor fit] |
| Cc1cc2c(C)nc(N/N=C/c3ccccc3)nc2o1 | inconclusive: 7.31 µM [activator, partial curve] |

Some of the entries so far, comma-delimited:
SMILES,Potency
COc1ccccc1C(=O)N1CCN(Cc2cccnc2)CC1,inactive
COc1ccc(C(=O)Nc2ccc(OC)c([N+](=O)[O-])c2)cc1Br,inactive
S=c1nc(NCc2ccc3c(c2)OCO3)c2ccccc2[nH]1,inactive
CCCCCn1ccc(=O)c2c(C(F)(F)F)nccc21,active: 5.8 µM
COc1cc(C2=NOC(C(=O)Nc3cc(C)on3)C2)cc(OC)c1OC (stereo unspecified),"inconclusive: 32.6 µM [inhibitor, single point]"

Exported as labelled records: 2 of the compounds above
COC(=O)COc1ccc(Oc2cc(C)nc(SC)n2)nn1
  Potency: inconclusive: 32.6 µM [activator, partial curve, poor fit]
O=[N+]([O-])c1cc(C(F)(F)F)ccc1NCCCCNS(=O)(=O)c1ccc(Cl)cc1
  Potency: inactive

More entries follow.

| SMILES | Potency |
| --- | --- |
| COc1ccc(C2=NOC(C(=O)NCc3cccs3)C2)cc1 (stereo unspecified) | inconclusive: 29.1 µM [activator, single point] |
| O=[N+]([O-])c1ccc(/C=N/n2cn[nH]c2=S)cc1 | inactive |
| Cc1ccc(-n2c(CCc3ccccc3)n[nH]c2=S)cc1C | inactive |
| O=C(c1cnn(C(=O)COc2ccc(Cl)cc2)c1)c1ccccc1O | inconclusive: 5.17 µM [inhibitor, partial curve, poor fit] |
| CCc1noc(C)c1C(=O)OCC(=O)Nc1ccc(F)cc1Cl | inconclusive: 25.1 µM [inhibitor, single point] |
| COCCNC(=O)C(c1ccc(C)o1)N(C(=O)C(=O)NC1CCCCC1)c1ccc(F)cc1 (stereo unspecified) | inconclusive: 20.6 µM [inhibitor, single point] |
| COc1ccc(-c2cn(Cc3cccc(OC)c3)nn2)cc1 | inconclusive: 5.8 µM [activator, single point] |
| CN(CC(=O)Nc1ccccc1Br)C(=O)CNC(=O)c1ccc(Oc2ccccc2)cc1 | inactive |
| COC(=O)CNC(=O)CN1C(=O)N(c2cccc(Cl)c2)C(N(O)C(=O)Nc2cccc(Cl)c2)C1(C)C (stereo unspecified) | inconclusive: 6.51 µM [inhibitor, single point] |
| O=C(Nc1cccc(F)c1)c1cc(S(=O)(=O)N2CCC3(CC2)OCCO3)ccc1F | inconclusive: 25.9 µM [inhibitor, partial curve] |
| COc1ccc(/C=N/Nc2ccc([N+](=O)[O-])cc2)cc1Cn1cc([N+](=O)[O-])cn1 | inconclusive: 6.51 µM [inhibitor, single point] |
| C/C(=N\Nc1ncc(Cl)cc1Cl)c1ccc(N2CCOCC2)cc1 | inactive |
| COCCCn1c(=NC(=O)c2ccccc2)c(C#N)cc2c(=O)n3cccc(C)c3nc21 | inconclusive: 16.4 µM [inhibitor, single point] |
| CSc1ccccc1OCc1cc(C(=O)N2CCC(Oc3cccnc3)CC2)no1 | inconclusive: 18.3 µM [inhibitor, single point] |
| CCc1nnc(NC(=O)C2CCN(C(=O)c3ccccc3C)CC2)s1 | inactive |
| CCCCc1nc2ccccc2c(N)c1CCC (tested in a mixture with another compound) | inconclusive: 18.4 µM [inhibitor, partial curve] |
| O=C(NC1CCCCC1)C(c1ccc2ncccc2c1)N(Cc1ccco1)C(=O)c1ccc2c(c1)OCCO2 (stereo unspecified) | inconclusive: 35.5 µM [inhibitor, single point] |
| CCN(CC)S(=O)(=O)c1cccc(NC(=O)c2ccc(C#N)cc2)c1 | inconclusive: 20.6 µM [inhibitor, single point] |
| CC(C)CN1CCC(Oc2cccc(C(=O)NCCc3ccccc3)c2)CC1 | inactive |
| O=C(NCC1CCCCC1)c1ccccc1[N+](=O)[O-] | inactive |
| Cc1cc(C)cc(NC(=O)CCN2C(=O)c3ccccc3C2=O)c1 | inactive |
| Cc1ccccc1OCC(=O)N=Nc1c(O)n(C)c2ccccc12 | inconclusive: 23.1 µM [activator, single point] |
| Cc1nn(Cc2ccc(Cl)cc2Cl)c(C)c1NC(=O)C1C2CCC(O2)C1C(=O)O (stereo unspecified) | inconclusive: 5.8 µM [inhibitor, full curve] |

Reference: PubChem BioAssay AID504467 (National Center for Advancing Translational Sciences (NCATS), 2011)
